Reference: patent US11896589B2, “Diazinyl amino acridines and medical uses thereof” (MyCural Therapeutics AB, priority 2018, dated 2024)
Some of these results come from one statement about several compounds together.

The compounds below were run on MYCN-amplified neuroblastoma cells (SK-N-DZ, Kelly, IMR-32) (assay: Assay 5A neuroblastoma cell growth (WST-1), MYCN-amplified). Settings: not given.
Type: cell-based, human
Procedure: FIG. 6: A-B) Neuroblastoma cell lines with (SK-N-DZ, Kelly and IMR-32) or without (SK-N-F1, SK-N-RA and SK-N-AS) MYCN-amplification were exposed to different concentrations of Example 1, Example 2 and control compound, respectively, for 48 hours. Cell growth and viability was estimated by measuring metabolic activity. C) Growth of TGR-1 (wt), HO15.19 (MYC knockout) and HOmyc3 (MYC reconstituted HO15.19) Rat1 fibroblasts, as measured by the WST-1 assay after treatment with Example 1. Data are shown as mean±standard deviation of 3-5 biological experiments, each with 3 technical repeats.
Assay 5A: Neuroblastoma Cell Growth
Neuroblastoma cell lines with (SK-N-DZ, Kelly and IMR-32) or without (SK-N-F1, SK-N-RA and SK-N-AS) MYCN-amplification were exposed to different concentrations of example compounds for 48 hours. Cell growth and viability was estimated by measuring metabolic activity by incubating cells in triplicates with WST-1 (Roche) in medium at 37° C. and 5% CO2 for 2 hours after which absorbance was measured with an Omega Fluostar (BMG Labtech) in a 96 well plate format.
With `CCOc1ccc2nc3cc(/N=N/c4ccc(O)c(CO)c4)ccc3c(N)c2c1` [Example 10, 4-[(E)-2-(9-amino-7-ethoxyacridin-3-yl)diazen-1-yl]-2-(hydroxymethyl)phenol] the “growth inhibition in MYCN-driven tumor cells” value (“growth inhibition” for short) was “have growth inhibition activities”.
With `CCOc1ccc2nc3cc(/N=N/c4ccc(O)c(CN(C)CCN(C)C(=O)CCCC[C@@H]5SC[C@@H]6NC(=O)N[C@@H]65)c4)ccc3c(N)c2c1` [Example 11, 5-[(3aS,4S,6aR)-2-oxo-hexahydro-1H-thieno[3,4-d]imidazol-4-yl]-N-{2-[({5-[(E)-2-(9-amino-7-ethoxyacridin-3-yl)diazen-1-yl]-2-hydroxyphenyl}methyl)(methyl)amino]ethyl}-N-methylpentanamide] the “growth inhibition” value was “have growth inhibition activities”.
In the case of `CCOc1ccc2nc3cc(/N=N/c4ccc(O)c(CN(C)C)c4)ccc3c(N)c2c1` [Example 12, 4-[(E)-2-(9-amino-7-ethoxyacridin-3-yl)diazen-1-yl]-2-((dimethylamino)methyl)phenol], the “growth inhibition” value is reported as “have growth inhibition activities”.

Same assay, conditions: MYCN-amplified vs non-amplified neuroblastoma cells
`CCOc1ccc2nc3cc(/N=N/c4cc(C)c(O)cc4C)ccc3c(N)c2c1` [Example 2, 4-((9-amino-7-ethoxyacridin-3-yl)diazenyl)-3,6-dimethylphenol] was tested, and the “discrimination between cells dependent on MYCN status” value was “discriminated between cells dependent on MYCN status”.
In the case of `CCOc1ccc2nc3cc(/N=N/c4c(C)cc(O)cc4C)ccc3c(N)c2c1` [Example 3, 4-((9-amino-7-ethoxyacridin-3-yl)diazenyl)-3,5-dimethylphenol hydrate], the “discrimination between cells dependent on MYCN status” value is reported as “discriminated between cells dependent on MYCN status”.
`CCOc1ccc2nc3cc(/N=N/c4ccc(N)cc4O)ccc3c(N)c2c1` [Example 4, 5-amino-2-((9-amino-7-ethoxyacridin-3-yl)diazenyl)phenol sulphate hydrate] was tested, and the “discrimination between cells dependent on MYCN status” value was “discriminated between cells dependent on MYCN status”.
`CCOc1ccc2nc3cc(/N=N/c4c(N)cccc4O)ccc3c(N)c2c1` [Example 5, 3-amino-2-((9-amino-7-ethoxyacridin-3-yl)diazenyl)phenol sulphate hydrate] was tested, and the “discrimination between cells dependent on MYCN status” value was “discriminated between cells dependent on MYCN status”.
For `CCOc1ccc2nc3cc(/N=N/c4cc(C)c(O)c(C)c4)ccc3c(N)c2c1` [Example 6, 4-((9-amino-7-ethoxyacridin-3-yl)diazenyl)-2,6-dimethylphenol], the “discrimination between cells dependent on MYCN status” value was “discriminated between cells dependent on MYCN status”.
For `CCOc1ccc2nc3cc(/N=N/c4ccc(O)c(CNCCN(C)C)c4)ccc3c(N)c2c1.Cl` [Example 8, 4-[(E)-(9-amino-7-ethoxy-acridin-3-yl)azo]-2-[[2-(dimethylamino)ethylamino]methyl]phenol hydrochloride], the “discrimination between cells dependent on MYCN status” value was “discriminated between cells dependent on MYCN status”.
With `CCOc1ccc2nc3cc(/N=N/c4ccc(O)c(CN(C)CCN(C)C)c4)ccc3c(N)c2c1` [Example 9, 4-[(E)-(9-amino-7-ethoxy-acridin-3-yl)azo]-2-[[2-(dimethylamino)ethyl-methyl-amino]methyl]phenol] the “discrimination between cells dependent on MYCN status” value was “discriminated between cells dependent on MYCN status”.
